Our source for the survivor count and T/C values is PubChem BioAssay AID290 (DTP/NCI, 2004).

The list does not hold the whole screen: it is rich in T/C values a quarter to a half above the control, in often repeated tests (any T/C) and in doses without a T/C. Other doses and runs of a compound stand elsewhere. T/C: endpoint of the treated group in % of that of the vehicle group. Schedules are NCI's codes, taken here to give the interval after Q, in days (D) or hours (H), and the number of doses after X. Some T/C values are followed by the survivors on the day toxicity was checked, most often the fifth; where none is given, no animal had died by that day. Some doses were run more than once; the values are given in rising order. Some doses have a count of surviving animals in place of a T/C: the source holds a T/C of zero for them, seemingly a mark for toxic or unscored doses. Some doses without a T/C left all or most animals alive at the check, yet need not have been tolerated: the source hardly ever lists a survival T/C far under the control, and the zero likely stands for such cases as well. Survivors were counted at the toxicity check, usually on the fifth day, unless a day is given; later deaths do not show. Marks such as (2×) give the number of equal values in this list. Where survival is the endpoint, the PubChem record calls one and a half times the control and up active, and a quarter to a half above the control has no call in these data; cut-offs in other NCI protocols can differ.

The assay concerns mice, P1798 lymphosarcoma sc, survival or tumor weight T/C. The assay is described as follows: NCI In Vivo Anticancer Drug Screen. Data for tumor model P1798 Lymphosarcoma (subcutaneous) in unknown mice. Here is the method: The antitumor activity of compounds was measured in mice bearing transplantable tumors. Survival or tumor size were measured and the results are expressed as the measurement made in the treated group (T) divided by the measurement made in the vehicle treated control group (C). The tumor model used in this assay is P1798 Lymphosarcoma (subcutaneous) in unknown mice

Where [1] appears, read: T/C endpoint: mean tumor weight, dose: 25.0 mg/kg/injection, schedule: Q01DX010 (sc), vehicle: steroid suspending solution, higher T/C = larger tumour.
The mark [2] stands for this setting: T/C endpoint: mean tumor weight, dose: 50.0 mg/kg/injection, schedule: Q01DX010 (sc), vehicle: steroid suspending solution, higher T/C = larger tumour.
The mark [3] stands for this setting: T/C endpoint: mean tumor weight, dose: 100.0 mg/kg/injection, schedule: Q01DX010 (sc), vehicle: steroid suspending solution, higher T/C = larger tumour.
[4] abbreviates: T/C endpoint: median survival time, dose: 18.75 mg/kg/injection, schedule: Q01DX029 (ip), vehicle: saline, higher T/C = longer survival.
Where [5] appears, read: T/C endpoint: median survival time, dose: 37.5 mg/kg/injection, schedule: Q01DX029 (ip), vehicle: saline, higher T/C = longer survival.
The mark [6] stands for this setting: T/C endpoint: median survival time, dose: 75.0 mg/kg/injection, schedule: Q01DX029 (ip), vehicle: saline, higher T/C = longer survival.
The mark [7] stands for this setting: T/C endpoint: median survival time, dose: 150.0 mg/kg/injection, schedule: Q01DX010 (ip), vehicle: saline, higher T/C = longer survival.
Where [8] appears, read: T/C endpoint: median survival time, dose: 300.0 mg/kg/injection, schedule: Q01DX010 (ip), vehicle: saline, higher T/C = longer survival.
The mark [9] stands for this setting: T/C endpoint: median survival time, dose: 600.0 mg/kg/injection, schedule: Q01DX010 (ip), vehicle: saline, higher T/C = longer survival.
The mark [10] stands for this setting: T/C endpoint: mean tumor weight, dose: 100.0 mg/kg/injection, schedule: Q01DX010 (ip), vehicle: carboxymethylcellulose (CMC), higher T/C = larger tumour.

In the case of `C[C@]12C=CC(=O)C=C1CC[C@@H]1[C@@H]2C(=O)C[C@@]2(C)[C@H]1CC[C@]2(O)C(=O)CO`, the survivor count is, setting by setting: (T/C endpoint: mean tumor weight, dose: 10.0 mg/kg/injection, schedule: Q01DX010 (sc), vehicle: steroid suspending solution, higher T/C = larger tumour) 5 of 10; under setting [1], 2 of 10; under setting [2], 3 of 10; under setting [3], 0 of 10 and 2 of 10; (T/C endpoint: median survival time, dose: 2.34 mg/kg/injection, schedule: Q01DX029 (ip), vehicle: saline, higher T/C = longer survival) 10 of 10; (T/C endpoint: median survival time, dose: 18.75 mg/kg/injection, schedule: Q01DX010 (ip), vehicle: saline, higher T/C = longer survival) 10 of 10. Further, the survivor count by setting is: under setting [4], 10 of 10 (2×); (T/C endpoint: median survival time, dose: 37.5 mg/kg/injection, schedule: Q01DX010 (ip), vehicle: saline, higher T/C = longer survival) 10 of 10 (2×); (T/C endpoint: median survival time, dose: 37.5 mg/kg/injection, schedule: Q01DX025 (ip), vehicle: saline, higher T/C = longer survival) 10 of 10; under setting [5], 10 of 10 (2×); (T/C endpoint: median survival time, dose: 75.0 mg/kg/injection, schedule: Q01DX010 (ip), vehicle: saline, higher T/C = longer survival) 9 of 10 (2×) and 10 of 10 (2×); (T/C endpoint: median survival time, dose: 75.0 mg/kg/injection, schedule: Q01DX025 (ip), vehicle: saline, higher T/C = longer survival) 10 of 10. For the same compound, the survivor count by setting is: under setting [6], 10 of 10 (2×); under setting [7], 9 of 10 (2×), 10 of 10 (5×), 8 of 8; (T/C endpoint: median survival time, dose: 150.0 mg/kg/injection, schedule: Q01DX010 (sc), vehicle: saline, higher T/C = longer survival) 10 of 10; (T/C endpoint: median survival time, dose: 150.0 mg/kg/injection, schedule: Q01DX025 (ip), vehicle: saline, higher T/C = longer survival) 10 of 10; (T/C endpoint: median survival time, dose: 150.0 mg/kg/injection, schedule: Q01DX029 (ip), vehicle: saline, higher T/C = longer survival) 9 of 10; under setting [8], 10 of 10 (2×) and 8 of 8. Further, the survivor count is, setting by setting: (T/C endpoint: median survival time, dose: 300.0 mg/kg/injection, schedule: Q01DX010 (sc), vehicle: saline, higher T/C = longer survival) 10 of 10; under setting [9], 10 of 10 (2×) and 8 of 8; (T/C endpoint: median survival time, dose: 600.0 mg/kg/injection, schedule: Q01DX010 (sc), vehicle: saline, higher T/C = longer survival) 10 of 10. The T/C is 27, 56, 57 [8 of 10 alive], 64, 87 % of control (T/C endpoint: mean tumor weight, dose: 12.5 mg/kg/injection, schedule: Q01DX010 (sc), vehicle: steroid suspending solution, evaluated on day 14, higher T/C = larger tumour); 54 % of control [8 of 10 alive] (T/C endpoint: mean tumor weight, dose: 12.5 mg/kg/injection, schedule: Q01DX010 (sc), vehicle: steroid suspending solution, evaluated on day 20, higher T/C = larger tumour); 22 [9 of 10 alive], 32 [9 of 10 alive], 36 [9 of 10 alive], 42, 54 % of control (T/C endpoint: mean tumor weight, dose: 25.0 mg/kg/injection, schedule: Q01DX010 (sc), vehicle: steroid suspending solution, evaluated on day 14, higher T/C = larger tumour); 15 % of control [9 of 10 alive] (T/C endpoint: mean tumor weight, dose: 25.0 mg/kg/injection, schedule: Q01DX010 (sc), vehicle: steroid suspending solution, evaluated on day 20, higher T/C = larger tumour); 1 [8 of 10 alive], 1 [9 of 10 alive], 21 [7 of 10 alive], 28 [9 of 10 alive], 58 % of control [9 of 10 alive] (T/C endpoint: mean tumor weight, dose: 50.0 mg/kg/injection, schedule: Q01DX010 (sc), vehicle: steroid suspending solution, evaluated on day 14, higher T/C = larger tumour); 130 % of control (T/C endpoint: mean tumor weight, dose: 80.0 mg/kg/injection, schedule: Q01DX010 (sc), vehicle: water, run until all animals had died, higher T/C = larger tumour). For the same compound, the T/C by setting is: (T/C endpoint: median survival time, dose: 4.67 mg/kg/injection, schedule: Q01DX029 (ip), vehicle: saline, evaluated on day 5, higher T/C = longer survival) 92 and 97 % of control; (T/C endpoint: median survival time, dose: 4.67 mg/kg/injection, schedule: Q01DX029 (ip), vehicle: saline, evaluated on day 53, higher T/C = longer survival) 97 % of control; (T/C endpoint: median survival time, dose: 4.67 mg/kg/injection, schedule: Q01DX029 (ip), vehicle: saline, evaluated on day 58, higher T/C = longer survival) 92 % of control; (T/C endpoint: median survival time, dose: 9.35 mg/kg/injection, schedule: Q01DX010 (ip), vehicle: saline, evaluated on day 5, higher T/C = longer survival) 88, 94, 101 % of control; (T/C endpoint: median survival time, dose: 9.35 mg/kg/injection, schedule: Q01DX010 (ip), vehicle: saline, evaluated on day 51, higher T/C = longer survival) 94 % of control; (T/C endpoint: median survival time, dose: 9.35 mg/kg/injection, schedule: Q01DX010 (ip), vehicle: saline, evaluated on day 53, higher T/C = longer survival) 88 % of control. The T/C is 101 % of control (T/C endpoint: median survival time, dose: 9.35 mg/kg/injection, schedule: Q01DX010 (ip), vehicle: saline, evaluated on day 58, higher T/C = longer survival); 100, 106, 110 % of control (T/C endpoint: median survival time, dose: 18.7 mg/kg/injection, schedule: Q01DX010 (ip), vehicle: saline, evaluated on day 5, higher T/C = longer survival); 110 % of control (T/C endpoint: median survival time, dose: 18.7 mg/kg/injection, schedule: Q01DX010 (ip), vehicle: saline, evaluated on day 51, higher T/C = longer survival); 100 % of control (T/C endpoint: median survival time, dose: 18.7 mg/kg/injection, schedule: Q01DX010 (ip), vehicle: saline, evaluated on day 53, higher T/C = longer survival); 106 % of control (T/C endpoint: median survival time, dose: 18.7 mg/kg/injection, schedule: Q01DX010 (ip), vehicle: saline, evaluated on day 58, higher T/C = longer survival); 70 and 78 % of control under setting [4]. Further, the T/C reads like this: (T/C endpoint: median survival time, dose: 37.5 mg/kg/injection, schedule: Q01DX010 (ip), vehicle: saline, evaluated on day 5, higher T/C = longer survival) 85, 110, 115, 119, 128, 132, 136 % of control; (T/C endpoint: median survival time, dose: 37.5 mg/kg/injection, schedule: Q01DX010 (ip), vehicle: saline, evaluated on day 51, higher T/C = longer survival) 110 and 132 % of control; (T/C endpoint: median survival time, dose: 37.5 mg/kg/injection, schedule: Q01DX010 (ip), vehicle: saline, evaluated on day 58, higher T/C = longer survival) 115 % of control; (T/C endpoint: median survival time, dose: 37.5 mg/kg/injection, schedule: Q01DX010 (ip), vehicle: saline, evaluated on day 60, higher T/C = longer survival) 128 and 130 % of control; (T/C endpoint: median survival time, dose: 37.5 mg/kg/injection, schedule: Q01DX010 (ip), vehicle: saline, evaluated on day 62, higher T/C = longer survival) 136 % of control; (T/C endpoint: median survival time, dose: 37.5 mg/kg/injection, schedule: Q01DX010 (sc), vehicle: saline, evaluated on day 5, higher T/C = longer survival) 138 % of control. Further, the T/C (T/C endpoint: median survival time, dose: 37.5 mg/kg/injection, schedule: Q01DX010 (sc), vehicle: saline, evaluated on day 47, higher T/C = longer survival) was 138 % of control; the T/C under setting [5] was 37 and 63 % of control; the T/C (T/C endpoint: median survival time, dose: 75.0 mg/kg/injection, schedule: Q01DX010 (ip), vehicle: saline, evaluated on day 5, higher T/C = longer survival) is reported as 50, 61, 108, 116, 121, 148, 149 % of control; the T/C (T/C endpoint: median survival time, dose: 75.0 mg/kg/injection, schedule: Q01DX010 (ip), vehicle: saline, evaluated on day 51, higher T/C = longer survival) was 121 and 149 % of control; the T/C (T/C endpoint: median survival time, dose: 75.0 mg/kg/injection, schedule: Q01DX010 (ip), vehicle: saline, evaluated on day 60, higher T/C = longer survival) is 108 % of control; the T/C (T/C endpoint: median survival time, dose: 75.0 mg/kg/injection, schedule: Q01DX010 (ip), vehicle: saline, evaluated on day 62, higher T/C = longer survival) is 148 % of control. For the same compound, the T/C by setting is: under setting [6], 40 and 50 % of control; under setting [7], 41, 47 (2×), 49, 55 (2×), 79 % of control; under setting [8], 28, 33, 39 % of control; under setting [9], 27, 31, 35 % of control.

In the case of `O=c1[nH]c(=O)n(C2CC(O)C(CO)O2)cc1F` (centres undefined), the survivor count reads like this: under setting [10], 0 of 10; (T/C endpoint: mean tumor weight, dose: 200.0 mg/kg/injection, schedule: Q01DX010 (ip), vehicle: carboxymethylcellulose (CMC), higher T/C = larger tumour) 0 of 10.

Consider `CC(C)=C(Br)CC[C@@H](C)[C@H]1CC[C@@]2(C)C3=C(CC[C@]12C)[C@@]1(C)CC[C@H](O)C(C)(C)[C@@H]1CC3`, for which the T/C is 140 % of control (T/C endpoint: mean tumor weight, dose: 50.0 mg/kg/injection, schedule: Q01DX011 (sc), vehicle: steroid suspending solution, evaluated on day 12, higher T/C = larger tumour) and 134 % of control (T/C endpoint: mean tumor weight, dose: 400.0 mg/kg/injection, schedule: Q01DX011 (sc), vehicle: steroid suspending solution, evaluated on day 12, higher T/C = larger tumour).

As to `CS(=O)(=O)OCCCl`, under setting [10], the survivor count is on record as 4 of 10.

With `Nc1nc(F)nc2c1ncn2C1OC(CO)C(O)C1O` (centres undefined), under “T/C endpoint: mean tumor weight, dose: 6.0 mg/kg/injection, schedule: Q01DX011 (ip), vehicle: saline, higher T/C = larger tumour”, the survivor count is recorded as 0 of 10.

As to `CC12C=CC(=O)C=C1CCC1C3CCC(O)(C(=O)CO)C3(C)CC(O)C12F` (centres undefined), the survivor count reads like this: under setting [1], 6 of 10; under setting [2], 1 of 10; under setting [3], 0 of 10.
